At least one peptide structure holds a part that was inferred or is arguable (an end, a ring closure or a residue). No end group written: not given here.
Experiments:
[1] = tested on: human polyclonal IgG in CHO-S cell culture fluid; assay: Static purification of IgG from CHO cell culture supernatant on peptide-Toyopearl resins, SDS-PAGE densitometry; conditions: Gel A
Description: Measurement of IgG binding by peptide-based chromatographic adsorbents: For initial studies, 35 mg of MWRGWQ (SEQ ID NO:2)-Toyopearl, RHLGWF (SEQ ID NO:3)-Toyopearl, WQRHGI (SEQ ID NO:1)-Toyopearl, GWLHQR (SEQ ID NO:4)-Toyopearl, and HWRGWV (SEQ ID NO:18)-Toyopearl (control) resins were equilibrated in PBS pH 7.4, reaching a swollen volume of 0.1 mL, and subsequently incubated with 1 mg/mL IgG in 0.205 mg/mL CHO cell culture supernatant for 30 minutes. The resins were subsequently washed several times with PBS to remove non-specifically bound proteins. Elution was performed with 100 mM glycine buffer pH 2.5. Flowthrough and elution fractions were collected and analyzed by SDS PAGE under reducing conditions. The resulting gels were stained with Coomassie staining. […] The amount of unbound IgG in the supernatant samples was quantified by Bradford assay and utilized to determine the IgG binding % by the peptide variants.
Characterization of IgG-binding peptide variants WQRHGI (SEQ ID NO:1), MWRGWQ (SEQ ID NO:2), RHLGWF (SEQ ID NO:3), and GWLHQR (SEQ ID NO:4) in competitive conditions: The four selected sequence variants were tested for their ability to purify human IgG from a CHO cell culture supernatant and found largely to mirror their in silico predictions. […] Flow through fractions and pH 2.5 elution fractions were loaded neat and analyzed by SDS PAGE (FIGS. 6A-6B). […]

human IgG = assay: Dynamic binding capacity by breakthrough assay; conditions: 20 mg/mL IgG in PBS
Description: Measurements of dynamic binding capacity (DBC) were performed on a Waters 2695 unit. MWRGWQ (SEQ ID NO:2)—Workbeads and WQRHGIC (SEQ ID NO:30)—Workbeads resins were wet packed in a 0.1 mL microbore column and equilibrated in PBS pH 7.4. A solution of human IgG at 20 mg/mL in PBS was owed through the column at 0.05 mL/min and 0.02 mL/min, corresponding to residence times (RT) of 2 and 5 min, respectively. The bound IgG was eluted with glycine pH 2.5. The absorbance of the effluent was monitored by UV/Vis spectrophotometry at 280 nm throughout the breakthrough study. The DBC was calculated at 10% of the breakthrough curve.
Breakthrough curves (FIG. 5 panels A-D) were obtained by flowing a 20 mg/mL solution of IgG in PBS through the […] and MWRGWQC (SEQ ID NO:31)-WB adsorbents at two different flow rates (0.05 and 0.02 mL/min) corresponding to two different residence times (2 and 5 minutes).

human polyclonal IgG = assay: Static binding isotherm on WorkBeads adsorbents, Langmuir fit; conditions: WorkBeads adsorbent, PBS pH 7.4, Langmuir fit
From the text: Measurements of static and dynamic binding capacity: […] NO:2)-Workbeads and […] NO:30)-Workbeads were characterized in terms of static and dynamic binding capacity respectively by batch and breakthrough binding studies. The peptides […] NO:3) and […] NO:4) were not selected for further studies due to their low selectivity and low yield, respectively. […] The resin was pelleted by centrifugation and the supernatant removed. […] The resulting fractions were combined and analyzed by BCA assay to quantify the unbound IgG and, accordingly, the amount of IgG adsorbed. The resulting data were fit to a Langmuir isotherm to determine the values of Qmax and KD(Solid). […] The amount of unbound IgG was determined by analyzing the supernatants via Micro BCA Protein Assay Kit. The amount of bound IgG per volume of resin (Q) was determined by mass balance and plotted against the corresponding equilibrium concentration of unbound IgG in solution (CIgG). The data were fit to a Langmuir isotherm model, thus providing a value of maximum binding capacity (Qmax) and dissociation constant (KD).

[2] = Solubility of free peptide in buffer (preparation for ITC); type: physicochemical; conditions: pH raised above 5
Description: MWRGWQ (SEQ ID NO:2) was unable to be examined via ITC. Peptide MWRGWQ (SEQ ID NO:2) was not soluble in pH 7.4 buffer, likely due to self-associative properties. MWRGWQ (SEQ ID NO:2) was found soluble in highly acidic buffer, but ITC results were confounded by the heat of mixing between acidic and neutral solutions. […] Attempts were made to raise the pH of buffer in which MWRGWQ (SEQ ID NO:2) was dissolved, but the peptide was seen to gel when the pH was raised above 5.
MWRGWQ's (SEQ ID NO:2) binding affinity could not be examined using ITC. […] However, when the peptide was dissolved in a lower pH solution, the heat of mixing between the different pH solutions was extremely high, and peptide-peptide or peptide-IgG binding energies upon titration became difficult to differentiation from the heat of mixing in ITC experiments.

MWRGWQ [MWRGWQ]
% Purity (IgG over total proteins) ([1]; lane FT (flow-through)): 98.42% | % Purity (IgG over total eluted proteins) ([1]; lane R (pH 2.5)): 97.82% | DBC at 10% breakthrough (human IgG; residence time 2 min): 44 mg IgG/mL resin | DBC at 10% breakthrough (human IgG; residence time 5 min): 55.3 mg IgG/mL resin | Qmax (human polyclonal IgG): 57.5 mg IgG/mL resin | Kd (human polyclonal IgG; read-out: KD(Solid)): 8.1 µM | behaviour on raising buffer pH [2]: gel
